Data as given in patent US12290533B2, “Extracellular vesicles and methods of using” (NUtech Ventures, priority 2018, dated 2025).
Some of these results come from one statement about several compounds together.

System: human colon carcinoma Caco-2 cells
Assay: Uptake of FM 4-64-labeled bovine milk exosomes into Caco-2 cells

Substance: trypsin
- decrease of exosome uptake (Caco-2 cells treated with protease): greater than 50%
- decrease of exosome uptake (exosomes treated with protease): greater than 50%
